From article PMC12700102
No constants are given. Whether binding was seen depends on the method and setting. In cells and extracts the contact can be indirect. Some entries that bind do so weakly or less than the wild type.

Amino acid sequences for entries named in this document (tags omitted).
UniProt Q5JSZ5: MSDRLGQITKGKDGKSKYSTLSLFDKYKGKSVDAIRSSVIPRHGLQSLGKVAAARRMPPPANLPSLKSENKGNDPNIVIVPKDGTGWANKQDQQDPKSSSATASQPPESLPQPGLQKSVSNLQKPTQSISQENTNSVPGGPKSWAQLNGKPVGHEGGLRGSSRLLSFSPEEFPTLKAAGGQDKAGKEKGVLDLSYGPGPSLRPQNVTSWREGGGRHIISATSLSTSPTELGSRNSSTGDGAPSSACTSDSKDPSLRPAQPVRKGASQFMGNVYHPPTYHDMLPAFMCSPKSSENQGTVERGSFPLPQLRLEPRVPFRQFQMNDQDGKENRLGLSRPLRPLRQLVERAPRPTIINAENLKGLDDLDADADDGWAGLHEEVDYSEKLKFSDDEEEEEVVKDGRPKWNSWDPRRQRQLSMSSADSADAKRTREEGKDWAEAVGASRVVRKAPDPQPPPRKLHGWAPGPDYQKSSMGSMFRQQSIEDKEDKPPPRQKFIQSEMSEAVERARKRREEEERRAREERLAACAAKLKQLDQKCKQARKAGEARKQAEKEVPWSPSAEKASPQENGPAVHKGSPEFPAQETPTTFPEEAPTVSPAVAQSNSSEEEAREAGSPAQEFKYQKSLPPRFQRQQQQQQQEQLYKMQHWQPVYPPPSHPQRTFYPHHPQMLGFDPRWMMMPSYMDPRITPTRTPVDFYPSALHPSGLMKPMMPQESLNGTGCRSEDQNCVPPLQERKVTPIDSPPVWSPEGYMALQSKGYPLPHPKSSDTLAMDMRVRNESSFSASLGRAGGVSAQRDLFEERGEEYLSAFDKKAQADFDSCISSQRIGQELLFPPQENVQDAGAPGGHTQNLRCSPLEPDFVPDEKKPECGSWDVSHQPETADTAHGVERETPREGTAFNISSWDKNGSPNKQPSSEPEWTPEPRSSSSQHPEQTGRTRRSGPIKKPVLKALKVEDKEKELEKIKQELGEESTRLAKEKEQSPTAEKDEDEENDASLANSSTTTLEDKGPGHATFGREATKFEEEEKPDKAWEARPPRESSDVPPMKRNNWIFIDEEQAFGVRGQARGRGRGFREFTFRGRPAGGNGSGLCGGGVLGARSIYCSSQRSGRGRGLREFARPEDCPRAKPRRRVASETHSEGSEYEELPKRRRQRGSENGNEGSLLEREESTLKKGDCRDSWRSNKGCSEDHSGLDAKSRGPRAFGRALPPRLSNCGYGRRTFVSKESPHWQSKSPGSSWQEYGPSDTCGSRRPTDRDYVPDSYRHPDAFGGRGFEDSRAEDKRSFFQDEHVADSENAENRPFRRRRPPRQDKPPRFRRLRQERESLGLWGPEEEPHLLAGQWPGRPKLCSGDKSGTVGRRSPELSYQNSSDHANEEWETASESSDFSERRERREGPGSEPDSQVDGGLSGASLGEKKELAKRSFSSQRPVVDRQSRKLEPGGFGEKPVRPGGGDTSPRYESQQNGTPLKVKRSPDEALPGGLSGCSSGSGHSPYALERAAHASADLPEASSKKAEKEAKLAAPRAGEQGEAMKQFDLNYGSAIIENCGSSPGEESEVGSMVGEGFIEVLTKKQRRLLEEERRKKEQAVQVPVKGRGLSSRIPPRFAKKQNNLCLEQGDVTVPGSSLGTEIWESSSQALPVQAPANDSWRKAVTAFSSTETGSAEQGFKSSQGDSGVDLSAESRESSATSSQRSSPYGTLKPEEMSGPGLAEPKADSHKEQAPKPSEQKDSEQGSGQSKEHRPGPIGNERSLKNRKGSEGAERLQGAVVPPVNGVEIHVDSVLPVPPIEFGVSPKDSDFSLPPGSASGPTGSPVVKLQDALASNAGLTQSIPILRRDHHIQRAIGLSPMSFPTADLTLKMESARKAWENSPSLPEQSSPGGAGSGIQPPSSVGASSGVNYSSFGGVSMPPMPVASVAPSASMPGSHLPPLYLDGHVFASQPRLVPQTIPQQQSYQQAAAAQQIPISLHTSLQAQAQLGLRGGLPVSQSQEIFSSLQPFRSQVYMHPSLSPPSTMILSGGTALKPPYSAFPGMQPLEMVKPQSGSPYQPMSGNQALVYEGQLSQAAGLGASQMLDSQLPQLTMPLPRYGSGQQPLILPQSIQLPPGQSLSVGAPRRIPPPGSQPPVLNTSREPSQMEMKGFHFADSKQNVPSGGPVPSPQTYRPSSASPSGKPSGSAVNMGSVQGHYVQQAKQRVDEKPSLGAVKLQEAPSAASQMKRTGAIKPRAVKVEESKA
UniProt Q99873: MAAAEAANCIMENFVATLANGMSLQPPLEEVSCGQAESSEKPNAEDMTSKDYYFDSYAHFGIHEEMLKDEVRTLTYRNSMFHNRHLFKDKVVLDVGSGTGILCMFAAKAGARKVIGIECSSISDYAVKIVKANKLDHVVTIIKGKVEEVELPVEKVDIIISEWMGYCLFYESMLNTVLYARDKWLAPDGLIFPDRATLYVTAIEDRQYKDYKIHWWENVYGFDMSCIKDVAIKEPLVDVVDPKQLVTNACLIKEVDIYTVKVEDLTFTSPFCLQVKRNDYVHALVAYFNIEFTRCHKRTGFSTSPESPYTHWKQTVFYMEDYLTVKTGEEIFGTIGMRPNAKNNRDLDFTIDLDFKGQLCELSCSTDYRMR
UniProt O15371: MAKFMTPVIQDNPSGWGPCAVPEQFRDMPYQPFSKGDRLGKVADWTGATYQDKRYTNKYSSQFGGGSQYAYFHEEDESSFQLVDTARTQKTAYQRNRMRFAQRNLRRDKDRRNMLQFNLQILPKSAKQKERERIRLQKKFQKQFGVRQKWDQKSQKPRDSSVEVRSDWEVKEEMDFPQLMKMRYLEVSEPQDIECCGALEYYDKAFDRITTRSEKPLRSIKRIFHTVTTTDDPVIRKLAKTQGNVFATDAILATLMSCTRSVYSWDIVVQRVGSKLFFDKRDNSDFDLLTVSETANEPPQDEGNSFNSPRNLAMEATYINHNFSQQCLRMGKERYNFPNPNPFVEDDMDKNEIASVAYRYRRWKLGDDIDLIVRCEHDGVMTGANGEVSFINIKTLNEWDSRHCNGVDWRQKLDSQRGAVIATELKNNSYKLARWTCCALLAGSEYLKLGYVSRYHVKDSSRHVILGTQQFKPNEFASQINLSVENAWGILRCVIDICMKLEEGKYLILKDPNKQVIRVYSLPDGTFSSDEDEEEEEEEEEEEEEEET

What was measured:
[1] = target: PRRC2B-long (PRRC2BL), HA-tagged (human) (UniProt Q5JSZ5); assay: co-IP; as the co-IP without RNase, but RNase A added to the lysate (100 mg/ml in the methods and the legend of Fig. 3, 100 μg/ml in the legend of Fig. 4)
[2] = target: PRRC2B-long (PRRC2BL), HA-tagged (human) (UniProt Q5JSZ5); assay: co-IP; HA-tagged PRRC2B constructs transfected 24 h in HEK 293T; buffer B; anti-HA beads 2 h at 4°C, 3 washes; western blot of endogenous partners; without RNase A

binding [1] | binding [2] | Molecule
binds | binds | PRMT1 (from UniProt Q99873 1-371) (enzyme)
binds | binds | EIF3D (from UniProt O15371 1-548)
– | binds | EIF4G2 (protein, UniProt P78344 1-907) MESAIAEGGASRFSASSGGGGSRGAPQHYPKTAGNSEFLGKTPGQNAQKWIPARSTRRDDNSAANNSANEKERHDAIFRKVRGILNKLTPEKFDKLCLELLNVGVESKLILKGVILLIVDKALEEPKYSSLYAQLCLRLAEDAPNFDGPAAEGQPGQKQSTTFRRLLISKLQDEFENRTRNVDVYDKRENPLLPEEEEQRAIAKIKMLGNIKFIGELGKLDLIHESILHKCIKTLLEKKKRVQLKDMGEDLECLCQIMRTVGPRLDHERAKSLMDQYFARMCSLMLSKELPARIRFLLQDTVELREHHWVPRKAFLDNGPKTINQIRQDAVKDLGVFIPAPMAQGMRSDFFLEGPFMPPRMKMDRDPLGGLADMFGQMPGSGIGTGPGVIQDRFSPTMGRHRSNQLFNGHGGHIMPPTQSQFGEMGGKFMKSQGLSQLYHNQSQGLLSQLQGQSKDMPPRFSKKGQLNADEISLRPAQSFLMNKNQVPKLQPQITMIPPSAQPPRTQTPPLGQTPQLGLKTNPPLIQEKPAKTSKKPPPSKEELLKLTETVVTEYLNSGNANEAVNGVREMRAPKHFLPEMLSKVIILSLDRSDEDKEKASSLISLLKQEGIATSDNFMQAFLNVLDQCPKLEVDIPLVKSYLAQFAARAIISELVSISELAQPLESGTHFPLFLLCLQQLAKLQDREWLTELFQQSKVNMQKMLPEIDQNKDRMLEILEGKGLSFLFPLLKLEKELLKQIKLDPSPQTIYKWIKDNISPKLHVDKGFVNILMTSFLQYISSEVNPPSDETDSSSAPSKEQLEQEKQLLLSFKPVMQKFLHDHVDLQVSALYALQVHCYNSNFPKGMLLRFFVHFYDMEIIEEEAFLAWKEDITQEFPGKGKALFQVNQWLTWLETAEEEESEEEAD
